Results as given in PMC4150532.
No constants are given. Whether binding was seen depends on the method and setting. Binding seen in cells or lysates may run through a third protein. Some entries that bind do so weakly or less than the wild type. Tags and fused reporters may be left off the sequences shown.

T1: Elp1–GFP (GFP-tagged wild-type Elp1, largest subunit of the Elongator complex) (S. cerevisiae) (UniProt Q06706)
T1 sequence: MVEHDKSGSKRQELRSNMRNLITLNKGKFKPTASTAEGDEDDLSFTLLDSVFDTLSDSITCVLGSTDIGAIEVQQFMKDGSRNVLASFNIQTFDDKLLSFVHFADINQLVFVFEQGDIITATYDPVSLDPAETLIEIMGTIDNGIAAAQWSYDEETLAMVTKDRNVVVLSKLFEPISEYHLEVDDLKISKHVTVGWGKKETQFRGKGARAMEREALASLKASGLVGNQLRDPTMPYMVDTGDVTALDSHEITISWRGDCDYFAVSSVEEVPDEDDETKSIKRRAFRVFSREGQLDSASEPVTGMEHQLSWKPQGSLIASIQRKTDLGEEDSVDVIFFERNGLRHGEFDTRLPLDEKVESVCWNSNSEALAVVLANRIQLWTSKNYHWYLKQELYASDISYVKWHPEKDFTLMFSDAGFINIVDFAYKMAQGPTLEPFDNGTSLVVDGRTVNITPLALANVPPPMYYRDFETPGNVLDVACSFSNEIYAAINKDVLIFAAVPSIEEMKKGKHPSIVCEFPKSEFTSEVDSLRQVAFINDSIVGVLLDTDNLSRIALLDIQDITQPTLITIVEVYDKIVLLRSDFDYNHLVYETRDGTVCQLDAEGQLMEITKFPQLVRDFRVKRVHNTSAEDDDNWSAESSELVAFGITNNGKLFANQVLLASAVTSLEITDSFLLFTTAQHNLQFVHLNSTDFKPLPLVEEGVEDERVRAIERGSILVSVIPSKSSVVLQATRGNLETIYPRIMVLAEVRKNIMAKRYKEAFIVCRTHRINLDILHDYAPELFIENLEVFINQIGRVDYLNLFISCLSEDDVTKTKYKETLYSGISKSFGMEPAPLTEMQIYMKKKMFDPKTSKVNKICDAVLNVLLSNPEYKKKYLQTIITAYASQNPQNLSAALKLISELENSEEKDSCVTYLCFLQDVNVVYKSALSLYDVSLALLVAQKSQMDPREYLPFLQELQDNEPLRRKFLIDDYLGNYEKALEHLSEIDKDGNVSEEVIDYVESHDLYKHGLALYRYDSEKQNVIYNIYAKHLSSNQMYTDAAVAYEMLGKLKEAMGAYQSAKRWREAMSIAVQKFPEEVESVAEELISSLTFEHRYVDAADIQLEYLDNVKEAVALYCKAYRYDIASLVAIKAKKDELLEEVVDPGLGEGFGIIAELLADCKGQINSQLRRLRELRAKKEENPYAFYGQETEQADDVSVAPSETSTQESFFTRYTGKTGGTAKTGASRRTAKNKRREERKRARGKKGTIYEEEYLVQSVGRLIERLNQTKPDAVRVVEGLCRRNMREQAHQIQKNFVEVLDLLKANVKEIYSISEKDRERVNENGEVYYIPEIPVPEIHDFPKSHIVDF


How the values were obtained:
[1] = target: T1, Elp1–GFP (GFP-tagged wild-type Elp1, largest subunit of the Elongator complex) (S. cerevisiae); assay: co-IP; GFP–Trap beads precipitate the GFP-tagged protein from yeast lysate; HA-tagged partners found by anti-HA blot and measured by densitometry; lysis buffer 50 mM HEPES-KOH pH 7.5, 150 mM NaCl, 2 mM MgCl2, 0.1% Triton X-100; 4°C
[2] = target: T1, Elp1–GFP (GFP-tagged wild-type Elp1, largest subunit of the Elongator complex) (S. cerevisiae); assay: co-IP; GFP–Trap beads precipitate genomic GFP-tagged Elp1 from lysate of yeast that also carry a plasmid copy of 6HA-tagged Elp1; anti-HA blot; done in strains with ELP5 and repeated in elp5Δ strains; 150 mM NaCl, 4°C

Row | Binder | binding [1] | binding [2]
1 | Elp3-3HA (HA-tagged Elp3 subunit of Elongator) (protein, UniProt Q02908 1-557) MARHGKGPKTNKKKLAPEKERFIQCCADITLELTDSLTSGTTREINLNGLITKYSKKYKLKQQPRLTDIINSIPDQYKKYLLPKLKAKPVRTASGIAVVAVMCKPHRCPHIAYTGNICVYCPGGPDSDFEYSTQSYTGYEPTSMRAIRARYDPYEQARGRVEQLKQLGHSIDKVEYVLMGGTFMSLPKEYREDFIVKLHNALSGFNGNDIDEAILYSQQSLTKCVGITIETRPDYCTQTHLDDMLKYGCTRLEIGVQSLYEDVARDTNRGHTVRSVCETFAVSKDAGYKVVSHMMPDLPNVGMERDIEQFKEYFENPDFRTDGLKIYPTLVIRGTGLYELWKTGRYKSYSANALVDLVARILALVPPWTRIYRVQRDIPMPLVTSGVDNGNLRELALARMKDLGTTCRDVRTREVGIQEVHHKVQPDQVELIRRDYYANGGWETFLSYEDPKKDILIGLLRLRKASKKYTYRKEFTSQRTSIVRELHVYGSVVPLHSRDPRKFQHQGFGTLLMEEAERIAKEEHGSEKISVISGVGVRNYYGKLGYELDGPYMSKRI | binds | –
2 | Elp5-3HA (HA-tagged Elp5 subunit of Elongator) (protein, UniProt P38874 1-309) MASSSHNPVILLKRILSLTESSPFILCLDSIAQTSYKLIQEFVHQSKSKGNEYPIVYISFETVNKPSYCTQFIDATQMDFVHLVKQIISYLPAATATQAKKHMVIIDSLNYISTEYITRFLSEIASPHCTMVATYHKDIKDENRTVIPDWNNNYPDKLTLLQFMATTIVDIDVVLTGTLDTEEVSELLNEFRIPRGLNNDIFQLRLVNKRKSGRSLEYDFIVNSNTHEYELLSTTKQEEESSSNGLETPEMLQGLTTFNLGTSNKQKLAKDQVALPFLEAQSFGQGGAIVYEYEKDDDYDEEDPYEDPF | binds | –
3 | Kti12-3HA (HA-tagged Elongator accessory protein Kti12) (protein, UniProt P34253 1-313) MPLVLFTGYPCSGKTTLAKHLVQLLQSKIDATPSLSKYSITYHSDESLGIKHSDYITSQDERKLRSEIISAVKRDLSKNKIVIVDSLNYIKGFRYQLHCEVKNLSTTFCVIQTLCPPETIFEWNKTSNPNPWEPELLNQLIQRYEEPNSSNRWDSPLFAILTPQDNITDYIDDICKVVFQTSKSAKNSGHNDPLSKGLQKPNSATVLKPASQSNFIQVLDIETSKIIKTIMNHIKSLTSIGGVSNGTRVIVSEGITDINDDGCFFVDLPIGNVVTLAQLQRLKRQFINFNKLRDIDQDRIGPLFADYLNKNLN | binds | –
4 | Elp1–6HA (6HA-tagged wild-type Elp1 from YCplac111–ELP1–6HA) (protein, UniProt Q06706 1-1349) MVEHDKSGSKRQELRSNMRNLITLNKGKFKPTASTAEGDEDDLSFTLLDSVFDTLSDSITCVLGSTDIGAIEVQQFMKDGSRNVLASFNIQTFDDKLLSFVHFADINQLVFVFEQGDIITATYDPVSLDPAETLIEIMGTIDNGIAAAQWSYDEETLAMVTKDRNVVVLSKLFEPISEYHLEVDDLKISKHVTVGWGKKETQFRGKGARAMEREALASLKASGLVGNQLRDPTMPYMVDTGDVTALDSHEITISWRGDCDYFAVSSVEEVPDEDDETKSIKRRAFRVFSREGQLDSASEPVTGMEHQLSWKPQGSLIASIQRKTDLGEEDSVDVIFFERNGLRHGEFDTRLPLDEKVESVCWNSNSEALAVVLANRIQLWTSKNYHWYLKQELYASDISYVKWHPEKDFTLMFSDAGFINIVDFAYKMAQGPTLEPFDNGTSLVVDGRTVNITPLALANVPPPMYYRDFETPGNVLDVACSFSNEIYAAINKDVLIFAAVPSIEEMKKGKHPSIVCEFPKSEFTSEVDSLRQVAFINDSIVGVLLDTDNLSRIALLDIQDITQPTLITIVEVYDKIVLLRSDFDYNHLVYETRDGTVCQLDAEGQLMEITKFPQLVRDFRVKRVHNTSAEDDDNWSAESSELVAFGITNNGKLFANQVLLASAVTSLEITDSFLLFTTAQHNLQFVHLNSTDFKPLPLVEEGVEDERVRAIERGSILVSVIPSKSSVVLQATRGNLETIYPRIMVLAEVRKNIMAKRYKEAFIVCRTHRINLDILHDYAPELFIENLEVFINQIGRVDYLNLFISCLSEDDVTKTKYKETLYSGISKSFGMEPAPLTEMQIYMKKKMFDPKTSKVNKICDAVLNVLLSNPEYKKKYLQTIITAYASQNPQNLSAALKLISELENSEEKDSCVTYLCFLQDVNVVYKSALSLYDVSLALLVAQKSQMDPREYLPFLQELQDNEPLRRKFLIDDYLGNYEKALEHLSEIDKDGNVSEEVIDYVESHDLYKHGLALYRYDSEKQNVIYNIYAKHLSSNQMYTDAAVAYEMLGKLKEAMGAYQSAKRWREAMSIAVQKFPEEVESVAEELISSLTFEHRYVDAADIQLEYLDNVKEAVALYCKAYRYDIASLVAIKAKKDELLEEVVDPGLGEGFGIIAELLADCKGQINSQLRRLRELRAKKEENPYAFYGQETEQADDVSVAPSETSTQESFFTRYTGKTGGTAKTGASRRTAKNKRREERKRARGKKGTIYEEEYLVQSVGRLIERLNQTKPDAVRVVEGLCRRNMREQAHQIQKNFVEVLDLLKANVKEIYSISEKDRERVNENGEVYYIPEIPVPEIHDFPKSHIVDF | – | binds
